From patent US20090291156A1, “HERBAL COMPOSITION FOR SKIN CARE” (SAGITTARIUS LIFE SCIENCE CORP., priority 2008, published 2009)
At least one compound was matched to its structure with a doubt left.

Columns and labels:
MMP-2 (gelatinase) [1] = test: MMP activity in culture supernatant of human dermal fibroblasts, pre-incubated with preparations under cell free condition (zymography); type: biochemical; conditions: 1 mM, FIG. 4
MMP-2 (gelatinase) [2] = test: Inhibition of MMP activity in fibroblast culture supernatant, gel slices incubated individually with preparations, cell free; type: biochemical, Human; conditions: 0.5 mM, FIG. 5

With `C[C@H]1c2cccc(O)c2C(=O)C2=C(O)[C@]3(O)C(=O)C(C(N)=O)=C(O)[C@@H](N(C)C)[C@@H]3[C@@H](O)[C@@H]21` [doxycycline] the “inhibition of MMP-2 activity” value (MMP-2 (gelatinase) [1]) was “about 50%” and the “inhibition of MMP-2 activity” value (MMP-2 (gelatinase) [2]) was “about 50%”.
